This assay deals with heat shock protein 60 (HSP60), endogenous in human prostate cancer cells (human (endogenous in LNCaP, PC-3, DU145)), P10809. Briefly: proximity ligation; cultured PCa cells (PC-3) and patient PCa specimens on a tissue microarray; also DCEM1-treated PC-3 cells and PC-3 xenograft tumors. The settings on record: remark: other sources report otherwise.

The text below walks through data of publication PMC9246382.

No constants are given. Whether binding was seen depends on the method and setting. Binding seen in cells or lysates may run through a third protein.

B1: LON peptidase 1 (LONP1), endogenous in PCa cells, P36776 68-959 (enzyme)
chain: FWEASSRGGGAFSGGEDASEGGAEEGAGGAGGSAGAGEGPVITALTPMTIPDVFPHLPLIAITRNPVFPRFIKIIEVKNKKLVELLRRKVRLAQPYVGVFLKRDDSNESDVVESLDEIYHTGTFAQIHEMQDLGDKLRMIVMGHRRVHISRQLEVEPEEPEAENKHKPRRKSKRGKKEAEDELSARHPAELAMEPTPELPAEVLMVEVENVVHEDFQVTEEVKALTAEIVKTIRDIIALNPLYRESVLQMMQAGQRVVDNPIYLSDMGAALTGAESHELQDVLEETNIPKRLYKALSLLKKEFELSKLQQRLGREVEEKIKQTHRKYLLQEQLKIIKKELGLEKDDKDAIEEKFRERLKELVVPKHVMDVVDEELSKLGLLDNHSSEFNVTRNYLDWLTSIPWGKYSNENLDLARAQAVLEEDHYGMEDVKKRILEFIAVSQLRGSTQGKILCFYGPPGVGKTSIARSIARALNREYFRFSVGGMTDVAEIKGHRRTYVGAMPGKIIQCLKKTKTENPLILIDEVDKIGRGYQGDPSSALLELLDPEQNANFLDHYLDVPVDLSKVLFICTANVTDTIPEPLRDRMEMINVSGYVAQEKLAIAERYLVPQARALCGLDESKAKLSSDVLTLLIKQYCRESGVRNLQKQVEKVLRKSAYKIVSGEAESVEVTPENLQDFVGKPVFTVERMYDVTPPGVVMGLAWTAMGGSTLFVETSLRRPQDKDAKGDKDGSLEVTGQLGEVMKESARIAYTFARAFLMQHAPANDYLVTSHIHLHVPEGATPKDGPSAGCTIVTALLSLAMGRPVRQNLAMTGEVSLTGKILPVGGIKEKTIAAKRAGVTCIVLPAENKKDFYDLAAFITEGLEVHFVEHYREIFDIAFPDEQAEALAVER
As to B1, the binding entry was “no binding”.
